Measurements reported in patent US7632918B2 (Novartis Vaccines and Diagnostics, Inc., priority 2005, dated 2009).

Experiment: general procedure: peptide synthesis; PyBOP or HBPyU; OSu active esters (DCC/HOSu)
Details: late stage modification step

## decyldimethylaminopropylamide of N,N-dimethyl-eremomycin
  step yield: 65%
